Where a name gives a salt, the structure may show the parent alone. This continues a long series; more values of the same kind are listed elsewhere.
Tests used:
Assay type in all cases: physicochemical
[1] = Effect of buffer anion on stability, pH 3, 60° C.
Method: (§1) The drug is monitored at a detection wavelength of 232 nm.
(§2) Tightly sealed glass vials containing the test solutions were placed in an oven at 40° C. or 60° C. All samples were stored in the dark. Aliquots were removed at designated time points for HPLC analysis and pH measurement.
The test buffers included 50 mM sodium phosphate, 50 mM sodium acetate, 50 mM sodium lactate, 50 mM sodium citrate, and 50 mM sodium succinate buffers at pH 3.
The phosphate and acetate buffers were prepared as described above. The citrate buffer was prepared by adding 9.60 g of citric acid to water, adjusting the pH with 2 N NaOH to pH 3, and bringing the volume to 1 L in a volumetric flask. The lactate buffer was prepared by adding 2.25 g of lactic acid to water, adjusting the pH with 2 N NaOH to pH 3, and bringing the volume to 1L in a volumetric flask. The succinate buffer was prepared by adding 2.95 g succinic acid to water, adjusting the pH with 2 N NaOH to pH 3, and bringing the volume to 1 L in a volumetric flask.
Measurements of sample pH were done after HPLC analysis.

[2] = Effect of additives on stability, pH 3.5, 60° C.; settings: 10 mM Sodium Acetate
Method: as §1
The pH value of the solutions was readjusted to pH 3.5, as required.
All samples were placed in 10 ml glass serum vials, stoppered with rubber closures with an inert coating (Daikyo Flurotec by WEST Pharmaceutical), and sealed with flip-top caps after sampling. Vials were placed at 60° C. after the weights were recorded.
Sampling occurred at the initial time point and on days 2, 7, and 14.
Vials were weighed, sampled, sealed, re-weighed, and replaced under the selected storage condition until testing at the subsequent time point.

[3] = Effect of sodium acetate buffer concentration on stability, pH 3.5, 60° C.
Method: as §1, §2
In conjunction with HPLC analysis, pH was measured. The measurement was performed using the same samples as used for the HPLC analysis. The pH meter was calibrated using pH 4.00 and 7.00 buffer standards prior to each measurement.
Samples were incubated at 60° C. with scheduled testing performed at day 0, 2, 7, and 14. The various buffer concentrations were prepared by diluting the 50 mM buffer with water and re-examining the pH value to determine if the pH 3.5 was constant. Measurements of pH were performed after HPLC analysis of the samples.

[4] = Propylene glycol, 25% w/v, Day 0
[5] = Propylene glycol, 25% w/v, Day 2
[6] = Propylene glycol, 25% w/v, Day 7
[7] = Propylene glycol, 25% w/v, Day 14
[8] = Sodium metabisulfite, 0.5 mg/ml, Day 0
[9] = Sodium metabisulfite, 0.5 mg/ml, Day 2
[10] = Sodium metabisulfite, 0.5 mg/ml, Day 7
[11] = Sodium metabisulfite, 0.5 mg/ml, Day 14
[12] = α-Cyclodextran, 50 mg/ml, Day 0
[13] = α-Cyclodextran, 50 mg/ml, Day 2
[14] = α-Cyclodextran, 50 mg/ml, Day 7
[15] = α-Cyclodextran, 50 mg/ml, Day 14
[16] = Sodium Acetate 0 mM (un-buffered), Day 0
[17] = Sodium Acetate 0 mM (un-buffered), Day 2
[18] = Sodium Acetate 0 mM (un-buffered), Day 7
[19] = Sodium Acetate 0 mM (un-buffered), Day 14

## Cc1ccc(N(CC2=NCCN2)c2cccc(O)c2)cc1 [Phentolamine, phentolamine]
[1]; 50 mM Citrate (sodium salt) pH 3.0, 60° C., Day 0
  Phentolamine Purity: 97 % peak area
[1]; 50 mM Citrate (sodium salt) pH 3.0, 60° C., Day 2
  Phentolamine Purity: 91 % peak area
[1]; 50 mM Citrate (sodium salt) pH 3.0, 60° C., Day 7
  Phentolamine Purity: 77 % peak area
[1]; 50 mM Citrate (sodium salt) pH 3.0, 60° C., Day 14
  Phentolamine Purity: 69 % peak area
[1]; 50 mM Lactate (sodium salt) pH 3.0, 60° C., Day 0
  Phentolamine Purity: 99 % peak area
[1]; 50 mM Lactate (sodium salt) pH 3.0, 60° C., Day 2
  Phentolamine Purity: 98 % peak area
[1]; 50 mM Lactate (sodium salt) pH 3.0, 60° C., Day 7
  Phentolamine Purity: 94 % peak area
[1]; 50 mM Lactate (sodium salt) pH 3.0, 60° C., Day 14
  Phentolamine Purity: 89 % peak area
[1]; 50 mM Succinate (sodium salt) pH 3.0, 60° C., Day 0
  Phentolamine Purity: 99 % peak area
[1]; 50 mM Succinate (sodium salt) pH 3.0, 60° C., Day 2
  Phentolamine Purity: 92 % peak area
[1]; 50 mM Succinate (sodium salt) pH 3.0, 60° C., Day 7
  Phentolamine Purity: 78 % peak area
[1]; 50 mM Succinate (sodium salt) pH 3.0, 60° C., Day 14
  Phentolamine Purity: 74 % peak area

## Cc1ccc(N(CC2=NCCN2)c2cccc(O)c2)cc1 [Phentolamine Mesylate, phentolamine mesylate]
[2]; EDTA, 0.7 mg/ml, Day 0
  Phentolamine Purity: 99 % Peak Area
[2]; EDTA, 0.7 mg/ml, Day 2
  Phentolamine Purity: 99 % Peak Area
[2]; EDTA, 0.7 mg/ml, Day 7
  Phentolamine Concentration: 103 µg/mL
  Phentolamine Purity: 99 % Peak Area
[2]; EDTA, 0.7 mg/ml, Day 14
  Phentolamine Concentration: 99 µg/mL
  Phentolamine Purity: 98 % Peak Area
[2]; Glycerol, 25% w/v, Day 0
  Phentolamine Concentration: 126 µg/mL
  Phentolamine Purity: 98 % Peak Area
[2]; Glycerol, 25% w/v, Day 2
  Phentolamine Concentration: 123 µg/mL
  Phentolamine Purity: 98 % Peak Area
[2]; Glycerol, 25% w/v, Day 7
  Phentolamine Concentration: 120 µg/mL
  Phentolamine Purity: 93 % Peak Area
[2]; Glycerol, 25% w/v, Day 14
  Phentolamine Concentration: 115 µg/mL
  Phentolamine Purity: 94 % Peak Area
[2]; NaCl, 50 mg/ml, Day 0
  Phentolamine Concentration: 94 µg/mL
  Phentolamine Purity: 94 % Peak Area
[2]; NaCl, 50 mg/ml, Day 2
  Phentolamine Concentration: 98 µg/mL
  Phentolamine Purity: 99 % Peak Area
[2]; NaCl, 50 mg/ml, Day 7
  Phentolamine Concentration: 80 µg/mL
  Phentolamine Purity: 89 % Peak Area
[2]; NaCl, 50 mg/ml, Day 14
  Phentolamine Concentration: 74 µg/mL
  Phentolamine Purity: 85 % Peak Area
[2]; Niacinamide, 50 mg/ml, Day 0
  Phentolamine Concentration: 90 µg/mL
  Phentolamine Purity: 99 % Peak Area
[2]; Niacinamide, 50 mg/ml, Day 2
  Phentolamine Concentration: 90 µg/mL
  Phentolamine Purity: 100 % Peak Area
[2]; Niacinamide, 50 mg/ml, Day 7
  Phentolamine Concentration: 78 µg/mL
  Phentolamine Purity: 93 % Peak Area
[2]; Niacinamide, 50 mg/ml, Day 14
  Phentolamine Concentration: 92 µg/mL
  Phentolamine Purity: 90 % Peak Area
[2]; No additive, Day 0
  Phentolamine Concentration: 90 µg/mL
  Phentolamine Purity: 99 % Peak Area
[2]; No additive, Day 2
  Phentolamine Concentration: 92 µg/mL
  Phentolamine Purity: 98 % Peak Area
[2]; No additive, Day 7
  Phentolamine Concentration: 82 µg/mL
  Phentolamine Purity: 98 % Peak Area
[2]; No additive, Day 14
  Phentolamine Concentration: 77 µg/mL
  Phentolamine Purity: 97 % Peak Area
[2]; [4]
  Phentolamine Concentration: 118 µg/mL
  Phentolamine Purity: 93 % Peak Area
[2]; [5]
  Phentolamine Concentration: 121 µg/mL
  Phentolamine Purity: 97 % Peak Area
[2]; [6]
  Phentolamine Concentration: 113 µg/mL
  Phentolamine Purity: 93 % Peak Area
[2]; [7]
  Phentolamine Concentration: 106 µg/mL
  Phentolamine Purity: 90 % Peak Area
[2]; [8]
  Phentolamine Concentration: 97 µg/mL
  Phentolamine Purity: 97 % Peak Area
[2]; [9]
  Phentolamine Concentration: 101 µg/mL
  Phentolamine Purity: 99 % Peak Area
[2]; [10]
  Phentolamine Concentration: 84 µg/mL
  Phentolamine Purity: 95 % Peak Area
[2]; [11]
  Phentolamine Concentration: 74 µg/mL
  Phentolamine Purity: 92 % Peak Area
[2]; d-Mannitol, 40 mg/ml, Day 0
  Phentolamine Concentration: 98 µg/mL
  Phentolamine Purity: 96 % Peak Area
[2]; d-Mannitol, 40 mg/ml, Day 2
  Phentolamine Concentration: 96 µg/mL
  Phentolamine Purity: 97 % Peak Area
[2]; d-Mannitol, 40 mg/ml, Day 7
  Phentolamine Concentration: 98 µg/mL
  Phentolamine Purity: 96 % Peak Area
[2]; d-Mannitol, 40 mg/ml, Day 14
  Phentolamine Concentration: 91 µg/mL
  Phentolamine Purity: 97 % Peak Area
[2]; [12]
  Phentolamine Concentration: 102 µg/mL
  Phentolamine Purity: 98 % Peak Area
[2]; [13]
  Phentolamine Concentration: 99 µg/mL
  Phentolamine Purity: 99 % Peak Area
[2]; [14]
  Phentolamine Concentration: 96 µg/mL
  Phentolamine Purity: 98 % Peak Area
[2]; [15]
  Phentolamine Concentration: 94 µg/mL
  Phentolamine Purity: 98 % Peak Area
[3]; [16]
  Phentolamine Concentration: 90 µg/mL
  Phentolamine Purity: 99 % peak area
[3]; [17]
  Phentolamine Concentration: 92 µg/mL
  Phentolamine Purity: 99 % peak area
[3]; [18]
  Phentolamine Concentration: 82 µg/mL
  Phentolamine Purity: 98 % peak area
[3]; [19]
  Phentolamine Concentration: 77 µg/mL
  Phentolamine Purity: 97 % peak area
[3]; Sodium Acetate 5 mM, Day 0
  Phentolamine Concentration: 99 µg/mL
  Phentolamine Purity: 99 % peak area
[3]; Sodium Acetate 5 mM, Day 2
  Phentolamine Concentration: 97 µg/mL
  Phentolamine Purity: 99 % peak area
[3]; Sodium Acetate 5 mM, Day 7
  Phentolamine Concentration: 94 µg/mL
  Phentolamine Purity: 98 % peak area
[3]; Sodium Acetate 5 mM, Day 14
  Phentolamine Concentration: 92 µg/mL
  Phentolamine Purity: 98 % peak area
[3]; Sodium Acetate 10 mM, Day 0
  Phentolamine Concentration: 100 µg/mL
  Phentolamine Purity: 99 % peak area
[3]; Sodium Acetate 10 mM, Day 2
  Phentolamine Concentration: 97 µg/mL
  Phentolamine Purity: 99 % peak area
[3]; Sodium Acetate 10 mM, Day 7
  Phentolamine Concentration: 96 µg/mL
  Phentolamine Purity: 98 % peak area
[3]; Sodium Acetate 10 mM, Day 14
  Phentolamine Concentration: 92 µg/mL
  Phentolamine Purity: 98 % peak area
[3]; Sodium Acetate 50 mM, Day 0
  Phentolamine Concentration: 103 µg/mL
  Phentolamine Purity: 98 % peak area
[3]; Sodium Acetate 50 mM, Day 2
  Phentolamine Concentration: 101 µg/mL
  Phentolamine Purity: 98 % peak area
[3]; Sodium Acetate 50 mM, Day 7
  Phentolamine Concentration: 99 µg/mL
  Phentolamine Purity: 98 % peak area
[3]; Sodium Acetate 50 mM, Day 14
  Phentolamine Concentration: 96 µg/mL
  Phentolamine Purity: 96 % peak area

Source: patent US20030236306A1, “Stabilized formulations of alpha adrenergic receptor antagonists and the uses thereof” (priority 2002, published 2003)
